Laboratory results taken from article PMC11729909.
Results are given in words; binding and its absence hold for the method and conditions named. For part of these data: Binding seen in cells or lysates may run through a third protein. Some binding calls cover weakened binding; strength is not graded here. Tags and fused reporters may be left off the sequences shown.

T1: FLAG-tagged FOXP1 (wild type, full length) (human) (UniProt Q9H334)
T1 sequence: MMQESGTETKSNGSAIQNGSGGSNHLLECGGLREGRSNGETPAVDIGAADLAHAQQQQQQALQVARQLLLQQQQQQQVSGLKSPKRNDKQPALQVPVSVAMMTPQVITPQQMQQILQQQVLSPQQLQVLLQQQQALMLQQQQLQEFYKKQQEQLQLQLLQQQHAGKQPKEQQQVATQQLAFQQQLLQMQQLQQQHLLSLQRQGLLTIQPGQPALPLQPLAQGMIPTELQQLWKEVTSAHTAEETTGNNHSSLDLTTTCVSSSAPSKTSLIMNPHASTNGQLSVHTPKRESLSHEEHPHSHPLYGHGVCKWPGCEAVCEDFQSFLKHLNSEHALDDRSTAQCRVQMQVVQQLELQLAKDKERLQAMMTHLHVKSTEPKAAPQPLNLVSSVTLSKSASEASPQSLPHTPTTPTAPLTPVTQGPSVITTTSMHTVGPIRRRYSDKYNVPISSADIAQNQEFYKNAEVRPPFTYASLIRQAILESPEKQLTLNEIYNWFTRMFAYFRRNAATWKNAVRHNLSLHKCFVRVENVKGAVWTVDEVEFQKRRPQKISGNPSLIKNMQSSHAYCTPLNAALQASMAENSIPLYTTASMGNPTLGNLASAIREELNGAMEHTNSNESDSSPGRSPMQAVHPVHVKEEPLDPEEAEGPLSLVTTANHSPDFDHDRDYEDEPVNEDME

T2: GST-tagged ATRIP (human) (UniProt Q8WXE1)
T2 sequence: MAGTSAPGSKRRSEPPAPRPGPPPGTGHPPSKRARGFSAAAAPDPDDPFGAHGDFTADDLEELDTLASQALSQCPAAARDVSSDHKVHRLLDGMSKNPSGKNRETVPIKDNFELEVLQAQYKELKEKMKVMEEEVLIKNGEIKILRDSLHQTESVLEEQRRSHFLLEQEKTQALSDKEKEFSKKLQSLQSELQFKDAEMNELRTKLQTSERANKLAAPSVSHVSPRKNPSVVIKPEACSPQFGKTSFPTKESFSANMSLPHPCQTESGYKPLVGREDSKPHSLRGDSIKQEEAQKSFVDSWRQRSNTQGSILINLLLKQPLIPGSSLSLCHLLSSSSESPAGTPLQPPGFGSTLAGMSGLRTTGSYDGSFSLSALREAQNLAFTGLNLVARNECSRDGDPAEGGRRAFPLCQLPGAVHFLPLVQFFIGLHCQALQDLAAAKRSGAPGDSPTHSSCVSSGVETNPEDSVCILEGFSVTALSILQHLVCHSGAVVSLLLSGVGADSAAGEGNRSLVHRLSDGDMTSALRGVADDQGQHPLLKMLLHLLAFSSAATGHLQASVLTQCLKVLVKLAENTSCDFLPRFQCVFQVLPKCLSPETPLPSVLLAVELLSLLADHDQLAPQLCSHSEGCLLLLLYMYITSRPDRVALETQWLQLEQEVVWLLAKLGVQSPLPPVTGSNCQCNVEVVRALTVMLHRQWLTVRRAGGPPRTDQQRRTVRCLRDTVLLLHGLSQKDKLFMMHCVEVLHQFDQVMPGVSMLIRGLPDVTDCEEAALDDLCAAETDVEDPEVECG

B1: OGT (endogenous) (enzyme, UniProt O15294 1-1046)
chain: MASSVGNVADSTEPTKRMLSFQGLAELAHREYQAGDFEAAERHCMQLWRQEPDNTGVLLLLSSIHFQCRRLDRSAHFSTLAIKQNPLLAEAYSNLGNVYKERGQLQEAIEHYRHALRLKPDFIDGYINLAAALVAAGDMEGAVQAYVSALQYNPDLYCVRSDLGNLLKALGRLEEAKACYLKAIETQPNFAVAWSNLGCVFNAQGEIWLAIHHFEKAVTLDPNFLDAYINLGNVLKEARIFDRAVAAYLRALSLSPNHAVVHGNLACVYYEQGLIDLAIDTYRRAIELQPHFPDAYCNLANALKEKGSVAEAEDCYNTALRLCPTHADSLNNLANIKREQGNIEEAVRLYRKALEVFPEFAAAHSNLASVLQQQGKLQEALMHYKEAIRISPTFADAYSNMGNTLKEMQDVQGALQCYTRAIQINPAFADAHSNLASIHKDSGNIPEAIASYRTALKLKPDFPDAYCNLAHCLQIVCDWTDYDERMKKLVSIVADQLEKNRLPSVHPHHSMLYPLSHGFRKAIAERHGNLCLDKINVLHKPPYEHPKDLKLSDGRLRVGYVSSDFGNHPTSHLMQSIPGMHNPDKFEVFCYALSPDDGTNFRVKVMAEANHFIDLSQIPCNGKAADRIHQDGIHILVNMNGYTKGARNELFALRPAPIQAMWLGYPGTSGALFMDYIITDQETSPAEVAEQYSEKLAYMPHTFFIGDHANMFPHLKKKAVIDFKSNGHIYDNRIVLNGIDLKAFLDSLPDVKIVKMKCPDGGDNADSSNTALNMPVIPMNTIAEAVIEMINRGQIQITINGFSISNGLATTQINNKAATGEEVPRTIIVTTRSQYGLPEDAIVYCNFNQLYKIDPSTLQMWANILKRVPNSVLWLLRFPAVGEPNIQQYAQNMGLPQNRIIFSPVAPKEEHVRRGQLADVCLDTPLCNGHTTGMDVLWAGTPMVTMPGETLASRVAASQLTCLGCLELIAKNRQEYEDIAVKLGTDLEYLKKVRGKVWKQRISSPLFNTKQYTMELERLYLQMWEHYAAGNKPDHMIKPVEVTESA
B2: HA-tagged ATRIP (protein, UniProt Q8WXE1 1-791)
chain: T2 sequence
B3: His-tagged FOXP1 (protein, UniProt Q9H334 1-677)
chain: T1 sequence

Experiments:
[1] = molecular target: T1, FLAG-tagged FOXP1 (wild type, full length) (human); test: co-IP; HEK293T transfected with the indicated plasmids, lysed in NETN buffer, Anti-FLAG Affinity Gel 4 h at 4 °C, immunoblot; in some panels 2 mM HU, Thiamet-G, OGT siRNA, ATR inhibitors (VE-822, NU6027) or CHK1 inhibitors (Rabusertib, UCN-01)
GST-tagged ATRIP (human) = molecular target: T2, GST-tagged ATRIP (human); test: pull-down; His-tagged FOXP1 incubated with GST-tagged ATRIP, GST pull-down on glutathione beads, immunoblot; both purified

Row | binding [1] | binding (GST-tagged ATRIP (human)) | Binder
1 | binds | – | B1
2 | binds | – | B2
3 | – | binds | B3
